In paper PMC7819943, “Rice protein-binding microarrays: a tool to detect cis-acting elements near promoter regions in rice”:
The other results are listed elsewhere or left out.

Target: T1, OsSMF1 (Oryza sativa, UniProt Q6ZLB0 1-436)
T1 sequence: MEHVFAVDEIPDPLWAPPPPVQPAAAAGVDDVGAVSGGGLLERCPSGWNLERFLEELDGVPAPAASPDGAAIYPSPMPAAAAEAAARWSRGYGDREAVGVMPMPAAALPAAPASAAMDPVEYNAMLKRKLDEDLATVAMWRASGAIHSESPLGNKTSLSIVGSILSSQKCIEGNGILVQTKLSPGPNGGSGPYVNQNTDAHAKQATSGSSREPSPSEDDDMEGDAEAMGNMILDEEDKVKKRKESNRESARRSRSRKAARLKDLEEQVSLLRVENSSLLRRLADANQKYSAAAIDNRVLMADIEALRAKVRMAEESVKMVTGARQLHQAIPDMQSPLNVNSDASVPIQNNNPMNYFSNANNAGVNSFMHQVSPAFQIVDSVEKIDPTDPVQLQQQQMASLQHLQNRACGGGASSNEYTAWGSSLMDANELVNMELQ
Experiment: protein-binding microarray (RPBM); PBS, 2% BSA, 51.3 ng/ul salmon testes DNA, 50 uM zinc acetate, 200 nM TF, 25 C, 1 h; high values mean tight binding
Conditions: protein: recombinant; tags: N-terminal polyhistidine and DsRed monomer fusion (pET32a); chain copies: 2; label: CyDye5-dUTP incorporated in the synthesized complementary strand; 3' TTTTT single-stranded linker to array surface; dsDNA, one strand shown
How it was run: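 Transcription factors were each fused at the N-terminus to a polyhistidine tag plus DsRed and expressed in E. coli BL21-CodonPlus before Ni–NTA purification. Binding to a double-stranded custom Agilent array was carried out with 200 nM protein at 25 °C for 1 h in PBS, 2% BSA, salmon testes DNA and 50 µM zinc acetate. The binding signal is per-feature fluorescence intensity, in arbitrary units, on an Axon 4000B scanner.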

Row | Sequence | binding signal
1 | GCACCACCTGCGCTGCTTCCGCTCCACGCCGGCGCCGCGCCGGAGTCACCTAGTGCAG | 3320 fluorescence intensity (a.u.)
2 | TGTTGTAGGATGAGGGGTGCCGCTCGGCGGTGAGGTGGAGCGGAGTCACCTAGTGCAG | 6250 fluorescence intensity (a.u.)
3 | GTCCGGATCTCCGCTCTTTGTCGAGTCGACTCCTATTCCTCGGAGTCACCTAGTGCAG | 3470 fluorescence intensity (a.u.)
4 | CTTCTCTTATTGTTTGTGTCATTTTCATTTATGTCCTTGTCGGAGTCACCTAGTGCAG | 3940 fluorescence intensity (a.u.)
5 | ATAATAATTGCTAGTGGGTGATGATGTGGTATACTTGCATCGGAGTCACCTAGTGCAG | 5680 fluorescence intensity (a.u.)
6 | TTTACCCCTCTGCATCCATCCACCAACCCGATCGACGACTCGGAGTCACCTAGTGCAG | 3290 fluorescence intensity (a.u.)
7 | TGACCTGACCAAACCATGCATTGTCAGACTCAACCTCAAACGGAGTCACCTAGTGCAG | 3740 fluorescence intensity (a.u.)
8 | GAAGTCAGTAAGGAACATCAAGCAAGAAAACACTGATGGTCGGAGTCACCTAGTGCAG | 4750 fluorescence intensity (a.u.)
9 | TACTGGCCAAAGTAATCTAGATGATCTGGCAGCGCATACCCGGAGTCACCTAGTGCAG | 6150 fluorescence intensity (a.u.)
10 | AAATTAGAGGATGTTGGATATCTGTTTTAGAGGGTCTTTGCGGAGTCACCTAGTGCAG | 3180 fluorescence intensity (a.u.)
11 | TGTGATATGTTCCTGTGAGCTGTCCCTCATCTAATTACCCCGGAGTCACCTAGTGCAG | 4430 fluorescence intensity (a.u.)
12 | GCGTAGCCGCAAGAAAGCGTACGAGTCATCGCCTTACATCCGGAGTCACCTAGTGCAG | 4940 fluorescence intensity (a.u.)
13 | CTCCCGGACCTTGAAGCCATCGCAGCCAAGGCCCTGCGCCCGGAGTCACCTAGTGCAG | 35000 fluorescence intensity (a.u.)
14 | AAAGCAACATCCCAGATGTTTCTAGCTGCGTATACTAGTCCGGAGTCACCTAGTGCAG | 3180 fluorescence intensity (a.u.)
15 | CACCAGCGGCAGAGTAGCTGACCTGACCGACCAGCCATGGCGGAGTCACCTAGTGCAG | 3480 fluorescence intensity (a.u.)
16 | AAATGGCCTTGCACACCTTGTCATTGAAATTAAGAACAAACGGAGTCACCTAGTGCAG | 6400 fluorescence intensity (a.u.)
17 | TCATGCTAACGTCTAACCTCATCGTTATCGTCGTGTCACGCGGAGTCACCTAGTGCAG | 5780 fluorescence intensity (a.u.)
18 | CAATCCCACCACGCCTACCCTAAACCCACGGCGATCTCCTCGGAGTCACCTAGTGCAG | 3320 fluorescence intensity (a.u.)
19 | GCTTTAGTCTACGTGACATACGCGTGGCAGTCCAGTCAGCCGGAGTCACCTAGTGCAG | 14500 fluorescence intensity (a.u.)
20 | GGACATAAATATACCACTGATATAAGCATCAAATAATTTGCGGAGTCACCTAGTGCAG | 3930 fluorescence intensity (a.u.)
21 | GTTGGAATCCCCTACGAAATCCGGCCGCCGCCTCTGACCTCGGAGTCACCTAGTGCAG | 3320 fluorescence intensity (a.u.)
22 | GGGTGGTGGGCCCCGCCGCCATAGTAATCGCTCGAGCTCGCGGAGTCACCTAGTGCAG | 4650 fluorescence intensity (a.u.)
23 | CCCTTCAGCACGTGGCTGATGCCCTTGCCGCTGCCCAGCCCGGAGTCACCTAGTGCAG | 3620 fluorescence intensity (a.u.)
24 | CATTTCAACCACCAGTGCCAAATTCACAGCTTAGTTTAAACGGAGTCACCTAGTGCAG | 5840 fluorescence intensity (a.u.)
25 | CCATCTGCGGCGTACTTGCCACTTTTCTTCGATCGGCACCCGGAGTCACCTAGTGCAG | 3550 fluorescence intensity (a.u.)
26 | GGTCGACCCACCGTCTGCCACGTCAGCTTGCTGCCCACCACGGAGTCACCTAGTGCAG | 48400 fluorescence intensity (a.u.)
27 | TCTTTGTCTCCAACTCCCTCGTCTCCTTGTACGCCAAGTTCGGAGTCACCTAGTGCAG | 3730 fluorescence intensity (a.u.)

Row | Sequence | binding signal
28 | ACCGAAACTGCTTGCATCACCGCTGATATCATCGCCTCCACGGAGTCACCTAGTGCAG | 5920 fluorescence intensity (a.u.)
29 | GTTATCCAATTGGTTGCAGGTGATGGGTGAACATGTTCTACGGAGTCACCTAGTGCAG | 3200 fluorescence intensity (a.u.)
30 | CTTCTTCTTATCCTACAGCATGTGACGTCAATTTATCATCCGGAGTCACCTAGTGCAG | 6060 fluorescence intensity (a.u.)
31 | ATAATGCATTTAGTATTGCCACCCTGTACTAATAGATGTTCGGAGTCACCTAGTGCAG | 3810 fluorescence intensity (a.u.)
32 | TGTTACAAAACCAAGTCACTCTAGATAGTTTTGACCGGTTCGGAGTCACCTAGTGCAG | 3650 fluorescence intensity (a.u.)
33 | ATGGTAAACGTTACTTGTTGCGGACAACGTGACTGGCTTCCGGAGTCACCTAGTGCAG | 4800 fluorescence intensity (a.u.)
34 | CCGTTTCACCTCGTGCTTCCGGGCGTGGCGTCGTGTACCCCGGAGTCACCTAGTGCAG | 3780 fluorescence intensity (a.u.)
35 | GTCGCCATGCGTGGCCAGAGATTTCCAAACGTAGTTGAATCGGAGTCACCTAGTGCAG | 3260 fluorescence intensity (a.u.)
36 | TGGGTCCCACATGAGTCCCACGCTGACTCAGCCGCCACGTCGGAGTCACCTAGTGCAG | 17800 fluorescence intensity (a.u.)
37 | AAACCCCTACCATGACACATGGCACATCCAAAGATTAAAACGGAGTCACCTAGTGCAG | 4070 fluorescence intensity (a.u.)
38 | AGTTCTTCACCGCCGGCGGCGTCATCGTGCTGCTCGACCTCGGAGTCACCTAGTGCAG | 4860 fluorescence intensity (a.u.)
39 | TCCTCCCTCTCCCTCTTCTGACTCGGATTCGCCGCAGCCGCGGAGTCACCTAGTGCAG | 6080 fluorescence intensity (a.u.)
40 | AAATTATAAATGCCACTGTCATATATATTTCTCGATAATGCGGAGTCACCTAGTGCAG | 3880 fluorescence intensity (a.u.)
41 | ACTTCTAAAACTCAGTATGCAAGTGTACAACATCGTCATCCGGAGTCACCTAGTGCAG | 4780 fluorescence intensity (a.u.)
42 | GACGCACGAAACCGCGAGCATTTCTGATTTCTCCTCCTCTCGGAGTCACCTAGTGCAG | 3240 fluorescence intensity (a.u.)
43 | TTTTCTTCCAAGGAAGGGGCGCTACGTGGACCAATCAAAACGGAGTCACCTAGTGCAG | 3790 fluorescence intensity (a.u.)
44 | TCTTCCACGTACCGATAGCGCCCCGCGTCATTACTTCGTCCGGAGTCACCTAGTGCAG | 7540 fluorescence intensity (a.u.)
45 | TATCCCCATATCTCTTTGAGCGTGTGCCATGACGCACATTCGGAGTCACCTAGTGCAG | 4440 fluorescence intensity (a.u.)
46 | GAGAAGATGGCGGGAGAAGCGAGGAGTGGAGCAGCGGTGGCGGAGTCACCTAGTGCAG | 14500 fluorescence intensity (a.u.)
47 | AATAGCATTCATCCATCAACTGAAGAACAAAGAGGCCATTCGGAGTCACCTAGTGCAG | 12400 fluorescence intensity (a.u.)
48 | TCCTCCTCGTCGTCATCTCCAACTCCCTCCCGCTCCCTTCCGGAGTCACCTAGTGCAG | 5660 fluorescence intensity (a.u.)
49 | ACACAATGTTCTAGGTTAGCTTGGTCATGACCAAGATTAGCGGAGTCACCTAGTGCAG | 4880 fluorescence intensity (a.u.)
50 | ATACGGCAGGAAGGCGCTGATGACACTGCCGGTGACCGTGCGGAGTCACCTAGTGCAG | 4270 fluorescence intensity (a.u.)
51 | CCAAACTAATTAAGACAGCCAACTCACCTCCATCATATAACGGAGTCACCTAGTGCAG | 65500 fluorescence intensity (a.u.)
52 | GCGGCCGTCGTCGTGGTCGTCACCCATCGTGGAGGCGCCGCGGAGTCACCTAGTGCAG | 3160 fluorescence intensity (a.u.)
53 | AGACAATCGCGAGGAAGCGTGTGCTGGCTCGTCCTGGATGCGGAGTCACCTAGTGCAG | 3210 fluorescence intensity (a.u.)
54 | CGCGCGTCTCTTGCCACGACGGCCACCACTCACCGAAGAACGGAGTCACCTAGTGCAG | 5170 fluorescence intensity (a.u.)

Two entries from above, reformatted.
Row	Sequence	binding signal
27	TCTTTGTCTCCAACTCCCTCGTCTCCTTGTACGCCAAGTTCGGAGTCACCTAGTGCAG	3730 fluorescence intensity (a.u.)
28	ACCGAAACTGCTTGCATCACCGCTGATATCATCGCCTCCACGGAGTCACCTAGTGCAG	5920 fluorescence intensity (a.u.)
